From patent US20170349627 (published 2017)

Test: peptide synthesis
Settings: late stage modification step, acetate

## caspofungin acetate
Run 1
  final HPLC purity: 99.82%
Run 2
  final HPLC purity: 99.76%
